From the supplement of paper PMC10849652
The list shows a part of the results.

The chains behind the UniProt entries cited, without tags or fusion partners. Where a name states a change or a piece, a line headed by the entry shows the natural chain unless it says otherwise.
UniProt Q6VN20, whole entry, looked up: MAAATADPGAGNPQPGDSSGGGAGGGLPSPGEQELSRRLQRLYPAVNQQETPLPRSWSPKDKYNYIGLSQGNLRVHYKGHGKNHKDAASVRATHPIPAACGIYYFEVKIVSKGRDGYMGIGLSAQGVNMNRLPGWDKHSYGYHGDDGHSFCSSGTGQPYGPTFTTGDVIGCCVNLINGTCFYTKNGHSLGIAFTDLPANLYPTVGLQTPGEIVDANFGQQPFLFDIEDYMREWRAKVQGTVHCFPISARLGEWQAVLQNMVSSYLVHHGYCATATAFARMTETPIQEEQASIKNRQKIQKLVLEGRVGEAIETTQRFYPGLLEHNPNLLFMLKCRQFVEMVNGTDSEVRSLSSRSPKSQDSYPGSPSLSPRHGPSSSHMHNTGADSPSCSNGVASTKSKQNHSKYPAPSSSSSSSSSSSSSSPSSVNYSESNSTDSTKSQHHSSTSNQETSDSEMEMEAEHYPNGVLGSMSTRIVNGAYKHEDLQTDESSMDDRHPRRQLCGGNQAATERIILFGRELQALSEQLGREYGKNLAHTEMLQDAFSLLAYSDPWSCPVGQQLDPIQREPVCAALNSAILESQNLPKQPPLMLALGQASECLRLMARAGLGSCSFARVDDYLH
UniProt Q15276: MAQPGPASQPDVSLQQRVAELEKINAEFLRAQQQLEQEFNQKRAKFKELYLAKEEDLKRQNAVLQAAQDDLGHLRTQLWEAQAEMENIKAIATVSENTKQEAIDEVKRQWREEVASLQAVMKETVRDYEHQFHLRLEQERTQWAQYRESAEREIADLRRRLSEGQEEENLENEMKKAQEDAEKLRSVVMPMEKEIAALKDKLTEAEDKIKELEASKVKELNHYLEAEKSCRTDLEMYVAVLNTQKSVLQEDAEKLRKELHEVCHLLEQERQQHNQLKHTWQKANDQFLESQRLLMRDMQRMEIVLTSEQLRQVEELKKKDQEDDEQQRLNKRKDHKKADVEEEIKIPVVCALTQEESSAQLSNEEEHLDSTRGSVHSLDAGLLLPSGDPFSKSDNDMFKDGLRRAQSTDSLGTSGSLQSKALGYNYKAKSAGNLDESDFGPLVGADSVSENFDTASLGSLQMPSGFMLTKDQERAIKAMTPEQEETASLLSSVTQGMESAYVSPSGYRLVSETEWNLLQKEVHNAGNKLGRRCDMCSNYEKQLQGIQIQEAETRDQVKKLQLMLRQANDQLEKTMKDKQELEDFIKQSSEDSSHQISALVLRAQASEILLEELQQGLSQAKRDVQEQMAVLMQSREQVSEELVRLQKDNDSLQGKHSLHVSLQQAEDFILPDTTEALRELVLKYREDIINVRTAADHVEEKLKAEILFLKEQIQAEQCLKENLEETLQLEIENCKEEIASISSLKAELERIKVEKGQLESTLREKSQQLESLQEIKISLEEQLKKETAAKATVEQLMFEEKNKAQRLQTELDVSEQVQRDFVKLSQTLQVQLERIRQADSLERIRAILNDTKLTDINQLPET
UniProt Q9BRP8: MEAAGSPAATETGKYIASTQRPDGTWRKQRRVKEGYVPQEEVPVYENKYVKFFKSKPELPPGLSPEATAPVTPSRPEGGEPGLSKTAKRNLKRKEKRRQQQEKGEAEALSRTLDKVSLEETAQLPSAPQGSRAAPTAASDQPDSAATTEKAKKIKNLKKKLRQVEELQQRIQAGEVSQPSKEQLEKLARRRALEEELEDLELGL
UniProt Q13636: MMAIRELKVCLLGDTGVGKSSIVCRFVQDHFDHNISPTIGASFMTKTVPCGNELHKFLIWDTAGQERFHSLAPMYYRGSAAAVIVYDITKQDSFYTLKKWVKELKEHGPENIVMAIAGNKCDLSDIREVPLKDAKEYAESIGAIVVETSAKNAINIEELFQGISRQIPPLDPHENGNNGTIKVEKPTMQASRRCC
UniProt Q9NP72: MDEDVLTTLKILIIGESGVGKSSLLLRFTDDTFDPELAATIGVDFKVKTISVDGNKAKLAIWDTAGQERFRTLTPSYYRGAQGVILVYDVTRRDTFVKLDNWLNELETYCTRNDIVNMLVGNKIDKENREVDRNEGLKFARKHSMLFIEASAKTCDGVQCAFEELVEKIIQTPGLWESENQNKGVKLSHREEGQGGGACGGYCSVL
UniProt O75771: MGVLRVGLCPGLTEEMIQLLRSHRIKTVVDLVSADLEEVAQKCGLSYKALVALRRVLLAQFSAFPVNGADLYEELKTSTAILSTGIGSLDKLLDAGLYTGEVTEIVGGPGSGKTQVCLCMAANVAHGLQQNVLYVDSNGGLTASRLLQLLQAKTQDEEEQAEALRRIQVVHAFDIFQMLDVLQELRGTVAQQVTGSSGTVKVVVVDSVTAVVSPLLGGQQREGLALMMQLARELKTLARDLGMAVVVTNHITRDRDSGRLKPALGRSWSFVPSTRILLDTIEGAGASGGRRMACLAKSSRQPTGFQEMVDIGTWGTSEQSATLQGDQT
UniProt P11233: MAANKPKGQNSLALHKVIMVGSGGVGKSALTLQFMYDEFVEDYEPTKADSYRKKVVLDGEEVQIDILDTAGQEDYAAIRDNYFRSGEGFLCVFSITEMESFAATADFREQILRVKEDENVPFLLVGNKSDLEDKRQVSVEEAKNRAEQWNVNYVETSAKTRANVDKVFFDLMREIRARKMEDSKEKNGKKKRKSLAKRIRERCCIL
UniProt P61106, whole entry, looked up: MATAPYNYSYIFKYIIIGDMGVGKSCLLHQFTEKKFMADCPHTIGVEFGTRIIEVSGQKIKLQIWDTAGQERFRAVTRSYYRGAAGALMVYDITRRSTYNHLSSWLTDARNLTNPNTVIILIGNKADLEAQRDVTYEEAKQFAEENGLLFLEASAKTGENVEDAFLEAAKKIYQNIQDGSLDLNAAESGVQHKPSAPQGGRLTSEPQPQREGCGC
UniProt P61006: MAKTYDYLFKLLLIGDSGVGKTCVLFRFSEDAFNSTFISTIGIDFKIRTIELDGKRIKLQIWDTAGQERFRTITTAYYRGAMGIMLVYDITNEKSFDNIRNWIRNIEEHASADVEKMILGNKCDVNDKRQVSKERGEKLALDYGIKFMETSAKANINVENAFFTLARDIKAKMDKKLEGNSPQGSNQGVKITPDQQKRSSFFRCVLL
UniProt P47897: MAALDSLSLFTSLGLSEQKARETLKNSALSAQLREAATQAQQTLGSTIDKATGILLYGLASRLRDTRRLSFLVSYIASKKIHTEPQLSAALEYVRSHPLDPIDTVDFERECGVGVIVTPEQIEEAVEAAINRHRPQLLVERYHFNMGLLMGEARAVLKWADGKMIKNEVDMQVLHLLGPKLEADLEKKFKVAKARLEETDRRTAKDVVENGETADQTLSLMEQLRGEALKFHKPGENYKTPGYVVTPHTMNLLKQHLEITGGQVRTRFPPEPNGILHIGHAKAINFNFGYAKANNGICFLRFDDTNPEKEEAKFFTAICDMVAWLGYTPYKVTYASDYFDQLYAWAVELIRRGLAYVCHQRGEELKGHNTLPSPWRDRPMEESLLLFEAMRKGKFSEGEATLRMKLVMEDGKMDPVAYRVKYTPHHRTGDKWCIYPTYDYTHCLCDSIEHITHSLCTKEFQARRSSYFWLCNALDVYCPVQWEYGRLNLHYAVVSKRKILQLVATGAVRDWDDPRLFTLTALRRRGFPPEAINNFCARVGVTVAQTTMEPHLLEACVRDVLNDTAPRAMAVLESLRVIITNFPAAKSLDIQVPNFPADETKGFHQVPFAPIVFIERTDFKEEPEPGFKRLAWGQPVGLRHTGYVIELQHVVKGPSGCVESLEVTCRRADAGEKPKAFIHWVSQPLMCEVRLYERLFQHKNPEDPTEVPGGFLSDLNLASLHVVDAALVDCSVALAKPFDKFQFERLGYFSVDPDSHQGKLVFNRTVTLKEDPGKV
UniProt Q9UL25: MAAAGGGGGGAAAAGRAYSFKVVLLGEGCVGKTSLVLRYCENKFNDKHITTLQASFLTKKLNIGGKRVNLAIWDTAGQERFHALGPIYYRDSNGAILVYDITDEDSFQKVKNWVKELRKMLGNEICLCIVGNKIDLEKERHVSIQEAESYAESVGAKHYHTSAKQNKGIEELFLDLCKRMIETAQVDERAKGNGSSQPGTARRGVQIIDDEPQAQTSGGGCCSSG
UniProt Q9H5N1: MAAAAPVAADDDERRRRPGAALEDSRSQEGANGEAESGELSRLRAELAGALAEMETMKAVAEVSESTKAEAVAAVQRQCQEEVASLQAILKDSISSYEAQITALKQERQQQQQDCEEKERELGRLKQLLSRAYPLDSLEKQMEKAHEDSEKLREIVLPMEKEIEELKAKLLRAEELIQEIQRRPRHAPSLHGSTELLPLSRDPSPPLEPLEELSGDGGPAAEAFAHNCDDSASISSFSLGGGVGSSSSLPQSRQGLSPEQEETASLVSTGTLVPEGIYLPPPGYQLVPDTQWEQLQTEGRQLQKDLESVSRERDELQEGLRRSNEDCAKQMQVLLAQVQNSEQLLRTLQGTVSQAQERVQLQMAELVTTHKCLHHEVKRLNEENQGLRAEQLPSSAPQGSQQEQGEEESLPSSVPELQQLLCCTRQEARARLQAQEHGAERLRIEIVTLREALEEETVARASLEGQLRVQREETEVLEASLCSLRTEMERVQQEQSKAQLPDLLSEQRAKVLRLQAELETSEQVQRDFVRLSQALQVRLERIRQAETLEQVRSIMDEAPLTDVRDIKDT
UniProt Q9H0R6: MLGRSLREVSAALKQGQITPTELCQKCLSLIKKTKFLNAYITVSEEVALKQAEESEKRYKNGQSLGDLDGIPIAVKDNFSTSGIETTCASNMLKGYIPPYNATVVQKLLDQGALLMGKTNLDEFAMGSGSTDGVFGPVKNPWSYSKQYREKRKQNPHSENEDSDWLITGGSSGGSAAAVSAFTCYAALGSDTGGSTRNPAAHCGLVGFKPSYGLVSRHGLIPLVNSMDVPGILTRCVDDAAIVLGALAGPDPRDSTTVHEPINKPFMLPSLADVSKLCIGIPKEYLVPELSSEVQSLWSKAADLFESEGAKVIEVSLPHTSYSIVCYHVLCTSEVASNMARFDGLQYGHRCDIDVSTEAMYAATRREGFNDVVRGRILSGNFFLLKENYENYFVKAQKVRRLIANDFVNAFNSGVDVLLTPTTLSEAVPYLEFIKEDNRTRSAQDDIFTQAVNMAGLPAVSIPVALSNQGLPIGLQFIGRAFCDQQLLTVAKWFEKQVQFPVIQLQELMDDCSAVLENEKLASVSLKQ
UniProt Q9H0H5: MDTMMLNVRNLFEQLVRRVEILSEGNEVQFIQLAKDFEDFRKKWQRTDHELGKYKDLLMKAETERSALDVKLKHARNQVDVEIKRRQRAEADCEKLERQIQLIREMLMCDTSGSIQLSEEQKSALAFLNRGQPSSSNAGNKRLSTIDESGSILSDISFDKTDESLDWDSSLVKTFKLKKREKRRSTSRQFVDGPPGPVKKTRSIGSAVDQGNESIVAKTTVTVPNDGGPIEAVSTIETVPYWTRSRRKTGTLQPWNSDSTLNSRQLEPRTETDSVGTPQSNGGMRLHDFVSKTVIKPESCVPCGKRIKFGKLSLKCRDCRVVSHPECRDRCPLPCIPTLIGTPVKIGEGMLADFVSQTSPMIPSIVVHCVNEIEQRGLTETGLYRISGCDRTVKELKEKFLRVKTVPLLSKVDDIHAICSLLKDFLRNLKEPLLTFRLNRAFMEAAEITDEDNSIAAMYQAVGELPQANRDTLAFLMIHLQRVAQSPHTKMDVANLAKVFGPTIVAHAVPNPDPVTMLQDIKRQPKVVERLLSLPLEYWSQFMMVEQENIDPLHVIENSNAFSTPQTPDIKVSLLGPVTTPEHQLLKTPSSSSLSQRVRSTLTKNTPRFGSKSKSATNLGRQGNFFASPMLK
UniProt P47736: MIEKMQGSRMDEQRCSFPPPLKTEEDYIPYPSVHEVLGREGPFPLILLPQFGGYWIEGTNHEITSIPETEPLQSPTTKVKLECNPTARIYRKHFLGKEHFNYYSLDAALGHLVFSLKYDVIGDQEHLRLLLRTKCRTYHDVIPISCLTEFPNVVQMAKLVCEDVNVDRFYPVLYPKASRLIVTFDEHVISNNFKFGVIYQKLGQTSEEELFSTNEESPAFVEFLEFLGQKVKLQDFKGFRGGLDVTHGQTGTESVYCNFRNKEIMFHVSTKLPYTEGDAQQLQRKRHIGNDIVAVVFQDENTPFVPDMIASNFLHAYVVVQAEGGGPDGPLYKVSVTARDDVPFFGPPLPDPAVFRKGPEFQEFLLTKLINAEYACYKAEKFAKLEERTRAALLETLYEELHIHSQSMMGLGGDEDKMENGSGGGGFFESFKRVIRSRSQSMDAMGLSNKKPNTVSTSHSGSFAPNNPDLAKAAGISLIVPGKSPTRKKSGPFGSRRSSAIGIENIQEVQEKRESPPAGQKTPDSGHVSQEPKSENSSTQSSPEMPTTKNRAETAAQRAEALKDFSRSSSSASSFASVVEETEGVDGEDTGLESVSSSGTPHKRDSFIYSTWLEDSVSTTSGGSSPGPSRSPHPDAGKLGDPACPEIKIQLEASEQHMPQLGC

Key:
Experiment in all cases: log2 fold change, soluble protein after heating vs DMSO (PISA); higher = thermal stabilisation; K562 lysate, 10 uM; active = over 0.2 and 3.5 SD of the protein, either way, in both replicates (recomputed)
vemurafenib = compound: CCCS(=O)(=O)Nc1ccc(F)c(C(=O)c2c[nH]c3ncc(-c4ccc(Cl)cc4)cc23)c1F [vemurafenib]
Summary of the method: (§1)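 Thermal stability, expressed as log-two fold change relative to solvent controls, is given from duplicates. Crude K562 extract in PBS pH 7.4 with 1 mM MgCl2, at 1 mg/mL protein, was treated with 10 μM compound for 30 min and heated in aliquots for 3 min across 48°C-58°C. After pooling, adjustment to 0.5% NP-40 at 4°C and centrifugation at 21,000xg for 90 min, supernatant protein was measured by TMTpro 16plex LC-MS/MS with channel sums equalised.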

[1] = compound: CCCS(=O)(=O)Nc1ccc(F)c(C(=O)c2c[nH]c3ncc(Cl)cc23)c1F
Summary of the method: as §1

barasertib = compound: CCN(CCCOc1ccc2c(Nc3cc(CC(=O)Nc4cccc(F)c4)[nH]n3)ncnc2c1)CCOP(=O)(O)O [barasertib]
Summary of the method: as §1

[2] = compound: CC[C@@H]1C(=O)N(C)c2cnc(Nc3ccc(C(=O)NC4CCN(C)CC4)cc3OC)nc2N1C1CCCC1
Summary of the method: as §1

volasertib = compound: CC[C@@H]1C(=O)N(C)c2cnc(Nc3ccc(C(=O)N[C@H]4CC[C@H](N5CCN(CC6CC6)CC5)CC4)cc3OC)nc2N1C(C)C [volasertib]
Summary of the method: as §1

[3] = compound: CCn1c(C(=O)N(C2CC2)C2CC2)cc2c3c(ncn3C)c(Nc3cc(C)n(C)n3)nc21
Summary of the method: as §1

[4] = compound: CCn1cc(-c2ccnc3[nH]c(-c4cccc(CN(C)C)c4)cc23)c(-c2ccc(NC(=O)N(C)C)cc2)n1
Summary of the method: as §1

[5] = compound: CN1CCC(CNc2ccc3ncc(-c4cccc(OC(F)(F)F)c4)n3n2)CC1
Summary of the method: as §1

saracatinib = compound: CN1CCN(CCOc2cc(OC3CCOCC3)c3c(Nc4c(Cl)ccc5c4OCO5)ncnc3c2)CC1 [saracatinib]
Summary of the method: as §1

sotrastaurin = compound: CN1CCN(c2nc(C3=C(c4c[nH]c5ccccc45)C(=O)NC3=O)c3ccccc3n2)CC1 [sotrastaurin]
Summary of the method: as §1

Measured: log2 fold change

RANBP10 (UniProt Q6VN20)
inactive: vemurafenib 0.078 | [1] 0.052 | barasertib 0.056 | [2] 0.075 | volasertib 0.044 | [3] -0.065 | [4] -0.003 | [5] -0.032 | saracatinib -0.021 | sotrastaurin -0.009

RABEP1 (UniProt Q15276)
inactive: vemurafenib -0.002 | [1] 0.006 | barasertib -0.025 | [2] 0.029 | volasertib 0.017 | [3] -0.017 | [4] -0.032 | [5] 0.053 | saracatinib 0.001 | sotrastaurin 0.007

PYM1 (UniProt Q9BRP8)
inactive: vemurafenib -0.033 | [1] 0.002 | barasertib 0.025 | [2] 0.062 | volasertib 0.024 | [3] 0 | [4] -0.017 | [5] 0.006 | saracatinib 0 | sotrastaurin 0.001

RALB isoform 2 (UniProt P11234)
inactive: vemurafenib 0.026 | [1] -0.03 | barasertib 0.049 | [2] 0.033 | volasertib -0.007 | [3] 0.068 | [4] -0.145 | [5] 0.151 | saracatinib -0.001 | sotrastaurin -0.002

QRICH1 (UniProt Q2TAL8)
inactive: vemurafenib -0.022 | [1] 0.047 | barasertib 0.038 | [2] -0.035 | volasertib -0.082 | [3] 0.004 | [4] -0.05 | [5] -0.03 | saracatinib 0.049 | sotrastaurin 0.027

RAB31 (UniProt Q13636)
inactive: vemurafenib 0.02 | [1] -0.027 | barasertib -0.018 | [2] -0.01 | volasertib -0.011 | [3] -0.019 | [4] 0.01 | [5] 0.089 | saracatinib 0.039 | sotrastaurin -0.025

RAB18 isoform 2 (UniProt Q9NP72)
inactive: vemurafenib -0.015 | [1] 0.028 | barasertib -0.04 | [2] -0.023 | volasertib 0.018 | [3] -0.038 | [4] 0.026 | [5] 0.073 | saracatinib 0.015 | sotrastaurin -0.003

RAB33B (UniProt Q9H082)
inactive: vemurafenib -0.075 | [1] 0.007 | barasertib -0.018 | [2] -0.016 | volasertib 0.114 | [3] -0.09 | [4] 0.035 | [5] 0.202 | saracatinib -0.005

QDPR (UniProt P09417)
inactive: vemurafenib -0.037 | [1] 0.002 | barasertib 0.007 | [2] 0.018 | volasertib 0.021 | [3] 0.019 | [4] -0.021 | [5] 0.011 | saracatinib -0.026 | sotrastaurin 0.019

RABGAP1 (UniProt Q9Y3P9)
inactive: vemurafenib -0.019 | [1] 0.002 | barasertib 0.015 | [2] 0.015 | volasertib -0.007 | [3] 0.002 | [4] 0.027 | [5] -0.006 | saracatinib 0.004 | sotrastaurin 0.025

RAC1 isoform 2 (UniProt P63000)
inactive: vemurafenib -0.03 | [1] 0.013 | barasertib -0.011 | [2] -0.056 | volasertib -0.007 | [3] 0.129 | [4] 0.225 | [5] -0.036 | saracatinib 0.019 | sotrastaurin 0.011

RAC2 (UniProt P15153)
inactive: vemurafenib 0.028 | [1] 0.034 | barasertib 0.054 | [2] 0.049 | volasertib -0.071 | [3] -0.001 | [4] -0.011 | [5] 0.008 | saracatinib 0.045 | sotrastaurin -0.058

RABEPK (UniProt Q7Z6M1)
inactive: vemurafenib -0.024 | [1] 0.003 | barasertib -0.066 | [2] 0.014 | volasertib -0.006 | [3] -0.021 | [4] 0.015 | [5] 0.011 | saracatinib -0.02 | sotrastaurin -0.028

RAD51D (UniProt O75771)
inactive: vemurafenib 0.012 | [1] 0.088 | barasertib -0.069 | [2] -0.149 | volasertib -0.106 | [3] -0.033 | [4] -0.039 | [5] -0.049 | saracatinib 0.031

RALA (UniProt P11233)
active: [4] -0.289
inactive: vemurafenib 0.033 | [1] 0.004 | barasertib -0.001 | [2] 0.029 | volasertib 0.014 | [3] -0.023 | [5] 0.169 | saracatinib -0.021 | sotrastaurin -0.027

RAB14 (UniProt P61106)
inactive: vemurafenib -0.001 | [1] -0.004 | barasertib 0.013 | [2] 0.024 | volasertib 0.012 | [3] -0.026 | [4] -0.095 | [5] 0.054 | saracatinib -0.002 | sotrastaurin -0.007

RAP2C (UniProt Q9Y3L5)
inactive: vemurafenib -0.215 | [1] -0.002 | barasertib 0.088 | [2] 0.049 | volasertib -0.097 | [3] -0.05 | [4] -0.057 | [5] 0.04 | saracatinib 0 | sotrastaurin 0.022

RAB8A (UniProt P61006)
inactive: vemurafenib -0.026 | [1] -0.044 | barasertib 0.042 | [2] -0.026 | volasertib 0.021 | [3] 0.04 | [4] -0.045 | [5] 0.056 | saracatinib -0.03 | sotrastaurin 0.02

Quoted at random: 2 records from the list.
RALA (UniProt P11233)
active: [4] -0.289
inactive: vemurafenib 0.033 | [1] 0.004 | barasertib -0.001 | [2] 0.029 | volasertib 0.014 | [3] -0.023 | [5] 0.169 | saracatinib -0.021 | sotrastaurin -0.027

RAB14 (UniProt P61106)
inactive: vemurafenib -0.001 | [1] -0.004 | barasertib 0.013 | [2] 0.024 | volasertib 0.012 | [3] -0.026 | [4] -0.095 | [5] 0.054 | saracatinib -0.002 | sotrastaurin -0.007

Remaining list, next part.

RAB27A (UniProt P51159)
inactive: vemurafenib -0.037 | [1] -0.024 | barasertib 0.012 | [2] -0.056 | volasertib -0.082 | [3] 0.034 | [5] -0.048 | saracatinib 0.021 | sotrastaurin 0.001
active: [4] 0.679

R3HCC1 (UniProt Q9Y3T6)
inactive: vemurafenib 0.07 | [1] 0.036 | barasertib 0.009 | [2] 0.044 | volasertib -0.015 | [3] -0.022 | [4] -0.066 | [5] 0.082 | saracatinib 0.029 | sotrastaurin 0.021

QARS (UniProt P47897)
inactive: vemurafenib 0.021 | [1] 0.013 | barasertib 0.042 | [2] -0.019 | volasertib -0.071 | [3] 0.048 | [4] -0.044 | [5] -0.076 | saracatinib 0.002 | sotrastaurin 0.03

RAB21 (UniProt Q9UL25)
active: [4] 0.262
inactive: vemurafenib -0.038 | [1] -0.005 | barasertib 0.041 | [2] 0.005 | volasertib -0.006 | [3] 0.008 | [5] -0.06 | saracatinib 0.029 | sotrastaurin -0.021

RAP1GDS1 isoform 5 (UniProt P52306)
inactive: vemurafenib 0.024 | [1] 0.003 | barasertib 0.047 | [2] -0.004 | volasertib -0.005 | [3] 0.002 | [4] -0.109 | [5] 0.045 | saracatinib 0.008 | sotrastaurin 0.031

RAD21 (UniProt O60216)
inactive: vemurafenib -0.032 | [1] 0.022 | barasertib 0.019 | [2] 0.01 | volasertib -0.014 | [3] 0.022 | [4] -0.015 | [5] 0.015 | saracatinib 0.001 | sotrastaurin -0.007

RANBP3 (UniProt Q9H6Z4)
inactive: vemurafenib 0.02 | [1] 0 | barasertib -0.01 | [2] 0.021 | volasertib 0.012 | [3] -0.03 | [4] -0.01 | [5] 0.076 | saracatinib -0.024 | sotrastaurin 0.013

RAB6B (UniProt Q9NRW1)
inactive: vemurafenib -0.035 | [1] -0.069 | barasertib 0.081 | [2] -0.021 | volasertib 0.021 | [3] 0.026 | [4] -0.014 | [5] 0.017 | saracatinib 0.009 | sotrastaurin 0.033

RABEP2 (UniProt Q9H5N1)
inactive: vemurafenib -0.054 | [1] 0.03 | barasertib 0.037 | [2] 0.036 | volasertib 0.014 | [3] 0 | [4] 0.127 | [5] -0.064 | saracatinib 0.049 | sotrastaurin 0.022

QRSL1 (UniProt Q9H0R6)
inactive: vemurafenib 0.134 | [1] 0.012 | barasertib 0.044 | [2] -0.004 | volasertib -0.057 | [3] 0.008 | [4] -0.178 | [5] -0.138 | saracatinib -0.056 | sotrastaurin 0.071

RACGAP1 (UniProt Q9H0H5)
inactive: vemurafenib -0.053 | [1] -0.002 | barasertib 0.005 | [2] 0.034 | volasertib -0.165 | [3] -0.004 | [4] -0.007 | [5] -0.047 | saracatinib 0.046 | sotrastaurin -0.005

RAP1GAP isoform 4 (UniProt P47736)
inactive: vemurafenib 0.009 | [1] 0.055 | barasertib 0.008 | [2] 0.044 | volasertib -0.075 | [3] 0.003 | [4] -0.038 | [5] 0.02 | saracatinib 0.06 | sotrastaurin 0.029
